Record: PubChem BioAssay AID1224831 (NIAID, 2016)
In all, the deposit lists about 3,500 reagents; below is a part drawn at random. In the full data, 731 (21%) are marked active. 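Active means either lowered or raised reporter signal; the gene-median score did not drive the per-siRNA calls.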 A number with no mark means an inactive call. Reagents against one gene are numbered here.

Aim: 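Retesting screen hits on the TLR4-driven TNF response with six separate siRNAs each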 (follow-up of hits)
Cells: human THP-1 B5 monocytic leukaemia cells carrying a TNF promoter luciferase reporter, made macrophage-like with PMA
Reagent: single siRNA against human genes, 50 nM
Timing: about 68 h of knock-down, then 4 h LPS
Conditions: LPS (Salmonella minnesota, TLR-grade) at 10 ng/ml for 4 h; PMA 5 ng/ml present during knock-down
Measured: 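TNF promoter reporter read as dual luciferase ratio after 4 h LPS, normalised per plate to its median, given as replicate mean robust z-score per siRNA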
Reading the numbers: TNF reporter z-score: higher = stronger LPS-induced TNF reporter signal; z-score, median over gene's siRNAs: higher = stronger TNF reporter signal across the gene's siRNAs
Active means: 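Two-sided call: reduced or raised TNF reporter signal counts as active once mean z reaches about -1 or below, or about 1.5 or above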
Calls: active = changed TNF reporter (either direction); inactive = little change

gene	reagent no.	TNF reporter z-score, replicate mean	z-score, median over gene's siRNAs
MAP3K15	1	0.18	0.15
MAP3K15	2	0.1	0.15
MAP3K15	3	0.71	0.15
MAP3K15	4	0.12	0.15
MAP3K15	5	1.07	0.15
MAP3K15	6	-0.4	0.15
USP13	1	0.07	0.005
USP13	2	-0.07	0.005
USP13	3	-0.06	0.005
USP13	4	2.62 (active)	0.005
USP13	5	0.21	0.005
USP13	6	-0.13	0.005
PPP1R10	1	-0.31	-1.11
PPP1R10	2	-1.58 (active)	-1.11
PPP1R10	3	-1.05 (active)	-1.11
PPP1R10	4	-1.18 (active)	-1.11
PPP1R10	5	1.13	-1.11
PPP1R10	6	-1.31 (active)	-1.11
JUP	1	-0.1	-0.845
JUP	2	-0.58	-0.845
JUP	3	-1.09 (active)	-0.845
JUP	4	-1.31 (active)	-0.845
JUP	5	-1.17 (active)	-0.845
JUP	6	-0.6	-0.845
TMEM200B	1	-0.15	0.565
TMEM200B	2	1.93 (active)	0.565
TMEM200B	3	-0.04	0.565
TMEM200B	4	1.14	0.565
TMEM200B	5	0.44	0.565
TMEM200B	6	0.69	0.565
PSMD11	1	-0.21	-0.42
PSMD11	2	-0.33	-0.42
PSMD11	3	-0.51	-0.42
PSMD11	4	-1.55 (active)	-0.42
PSMD11	5	-0.51	-0.42
PSMD11	6	-0.31	-0.42
KRAS	1	0.77	0.755
KRAS	2	4.25 (active)	0.755
KRAS	3	0.3	0.755
KRAS	4	0.74	0.755
KRAS	5	-0.63	0.755
KRAS	6	1.38	0.755
MPV17	1	-0.17	-0.495
MPV17	2	-0.82	-0.495
MPV17	3	-1.78 (active)	-0.495
MPV17	4	4.61 (active)	-0.495
MPV17	5	-1.06 (active)	-0.495
MPV17	6	0.84	-0.495
OFCC1	1	-0.84	-0.28
OFCC1	2	1.32	-0.28
OFCC1	3	-0.48	-0.28
OFCC1	4	0.01	-0.28
OFCC1	5	-0.58	-0.28
OFCC1	6	-0.08	-0.28
RBM39	1	-0.83	0.085
RBM39	2	-0.98	0.085
RBM39	3	1.03	0.085
RBM39	4	1.19	0.085
RBM39	5	-0.89	0.085
RBM39	6	1	0.085
CCNL2	1	1.87 (active)	1.38
CCNL2	2	0.88	1.38
CCNL2	3	0.41	1.38
CCNL2	4	0.18	1.38
CCNL2	5	4.79 (active)	1.38
CCNL2	6	3.97 (active)	1.38
R3HDM1	1	0.15	0.08
R3HDM1	2	0.6	0.08
R3HDM1	3	-0.64	0.08
R3HDM1	4	0.01	0.08
R3HDM1	5	-0.49	0.08
R3HDM1	6	0.75	0.08
PPL	1	0.09	-0.115
PPL	2	-0.5	-0.115
PPL	3	-0.83	-0.115
PPL	4	0.56	-0.115
PPL	5	1.47	-0.115
PPL	6	-0.32	-0.115
DGKQ	1	1.91 (active)	0.705
DGKQ	2	0.95	0.705
DGKQ	3	-0.56	0.705
DGKQ	4	0.46	0.705
DGKQ	5	0.16	0.705
DGKQ	6	0.96	0.705
LAMB3	1	0.14	0.67
LAMB3	2	2.91 (active)	0.67
LAMB3	3	1.2	0.67
LAMB3	4	-0.46	0.67
LAMB3	5	1.5 (active)	0.67
LAMB3	6	-0.83	0.67
LRRC8D	1	1.01	0.865
LRRC8D	2	0.73	0.865
LRRC8D	3	0.92	0.865
LRRC8D	4	0.81	0.865
LRRC8D	5	0.37	0.865
LRRC8D	6	2.59 (active)	0.865

Entries above marked active, once more:
gene	reagent no.	TNF reporter z-score, replicate mean	z-score, median over gene's siRNAs
USP13	4	2.62 (active)	0.005
PPP1R10	2	-1.58 (active)	-1.11
PPP1R10	3	-1.05 (active)	-1.11
PPP1R10	4	-1.18 (active)	-1.11
PPP1R10	6	-1.31 (active)	-1.11
JUP	3	-1.09 (active)	-0.845
JUP	4	-1.31 (active)	-0.845
JUP	5	-1.17 (active)	-0.845
TMEM200B	2	1.93 (active)	0.565
PSMD11	4	-1.55 (active)	-0.42
KRAS	2	4.25 (active)	0.755
MPV17	3	-1.78 (active)	-0.495
MPV17	4	4.61 (active)	-0.495
MPV17	5	-1.06 (active)	-0.495
CCNL2	1	1.87 (active)	1.38
CCNL2	5	4.79 (active)	1.38
CCNL2	6	3.97 (active)	1.38
DGKQ	1	1.91 (active)	0.705
LAMB3	2	2.91 (active)	0.67
LAMB3	5	1.5 (active)	0.67
LRRC8D	6	2.59 (active)	0.865
